In PMC8344065:

Biological target: Receptor-interacting protein kinase 1 (RIPK1), rat cardiomyocytes (rat (endogenous in neonatal Sprague-Dawley cardiomyocytes))
Assay: co-IP; neonatal rat cardiomyocytes lysed in RIPA buffer, normoxia and hypoxia (also with LC3-OE or LC3-KD adenovirus); anti-LC3B or anti-RIPK1 antibody 6 h at 4°C, protein A/G-Sepharose overnight at 4°C, 5 washes with PBS; rabbit IgG as negative control

B1: Receptor-interacting protein kinase 3 (RIPK3), rat cardiomyocytes (protein, UniProt Q9Z2P5 1-478)
chain: MSSVKLWLNGASSISLVGSEELENLGFVGKGGFGAVFRARHTAWNLDVAVKIVNSKKISREVKAMVNLRHENVLLLLGVTENLEWDYVYGPALVTGFMENGSLSGLLQPSCPRPWPLLCRLLEEVVLGMCYLHSLNPSLLHRDLKPSNVLLDPELHAKLADFGLSTFQGGSQSGSGSGSRDSGGTLAYLAPELLDNDGKASKASDVYSFGVLVWTVLAGREAEVVDKTSLIRGAVCNRQRRPPLTELPPDSPETPGLEGLKELMTHCWSSEPKDRPSFQDCESKTNNVYILVQDKVDAAVSKVKHYLSQYRSSDTKLSARESSQKGTEVDCPRETIVYEMLDRLHLEEPSGSVPERLTSLTERRGKEASFGHATPAGTSSDTLAGTPQIPHTLPSRGTTPRPAFTETPGPDPQRNQGDGRNSNPWYTWNAPNPMTGLQSIVLNNCSEVQIGQHNCMSVQPRTAFPKKEPAQFGRGRGW
binding: binds

No constants are given. Whether binding was seen depends on the method and setting. In cells and extracts the contact can be indirect. Binding can be weak; no strength is given.
